According to the supplement of paper PMC11006884:
The list shows a part of the results, in another mix than the full data.

By UniProt entry, the sequences of proteins in these tests, tags left out. Where a name states a change or a piece, a line headed by the entry shows the natural chain unless it says otherwise.
UniProt P17980, whole entry, looked up: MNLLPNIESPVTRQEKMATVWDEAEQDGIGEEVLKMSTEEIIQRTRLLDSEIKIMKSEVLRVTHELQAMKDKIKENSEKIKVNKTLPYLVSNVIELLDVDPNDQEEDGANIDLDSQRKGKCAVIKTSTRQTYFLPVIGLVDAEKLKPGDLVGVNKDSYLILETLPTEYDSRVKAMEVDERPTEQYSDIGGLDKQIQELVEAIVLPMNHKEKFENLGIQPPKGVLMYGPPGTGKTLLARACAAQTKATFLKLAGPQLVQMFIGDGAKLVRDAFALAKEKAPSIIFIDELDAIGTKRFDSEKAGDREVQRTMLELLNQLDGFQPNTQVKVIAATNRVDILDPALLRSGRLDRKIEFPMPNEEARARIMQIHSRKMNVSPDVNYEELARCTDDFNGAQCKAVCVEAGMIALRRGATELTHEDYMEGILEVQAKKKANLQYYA
UniProt P21912: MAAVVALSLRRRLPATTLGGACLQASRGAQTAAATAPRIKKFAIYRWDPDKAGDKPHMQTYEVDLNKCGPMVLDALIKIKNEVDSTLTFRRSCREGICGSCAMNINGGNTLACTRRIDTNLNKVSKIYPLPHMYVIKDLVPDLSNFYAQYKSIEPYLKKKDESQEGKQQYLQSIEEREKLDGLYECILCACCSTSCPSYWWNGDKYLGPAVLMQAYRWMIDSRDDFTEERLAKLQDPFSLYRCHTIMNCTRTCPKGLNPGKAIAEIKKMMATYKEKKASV
UniProt P26599: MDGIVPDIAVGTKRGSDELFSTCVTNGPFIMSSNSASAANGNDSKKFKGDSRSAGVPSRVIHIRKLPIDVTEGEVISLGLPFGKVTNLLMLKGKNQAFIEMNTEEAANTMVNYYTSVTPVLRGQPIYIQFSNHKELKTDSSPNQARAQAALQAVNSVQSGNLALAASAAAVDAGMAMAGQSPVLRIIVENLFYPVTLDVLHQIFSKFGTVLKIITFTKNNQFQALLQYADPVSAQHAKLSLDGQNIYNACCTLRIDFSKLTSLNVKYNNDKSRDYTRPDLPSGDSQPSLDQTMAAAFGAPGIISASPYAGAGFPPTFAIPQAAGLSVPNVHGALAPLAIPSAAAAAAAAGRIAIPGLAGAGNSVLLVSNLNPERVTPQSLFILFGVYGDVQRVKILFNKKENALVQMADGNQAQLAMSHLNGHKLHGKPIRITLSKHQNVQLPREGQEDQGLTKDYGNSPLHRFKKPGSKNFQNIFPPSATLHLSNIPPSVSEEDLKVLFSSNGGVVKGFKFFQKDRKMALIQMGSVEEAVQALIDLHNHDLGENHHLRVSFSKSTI
UniProt P28340: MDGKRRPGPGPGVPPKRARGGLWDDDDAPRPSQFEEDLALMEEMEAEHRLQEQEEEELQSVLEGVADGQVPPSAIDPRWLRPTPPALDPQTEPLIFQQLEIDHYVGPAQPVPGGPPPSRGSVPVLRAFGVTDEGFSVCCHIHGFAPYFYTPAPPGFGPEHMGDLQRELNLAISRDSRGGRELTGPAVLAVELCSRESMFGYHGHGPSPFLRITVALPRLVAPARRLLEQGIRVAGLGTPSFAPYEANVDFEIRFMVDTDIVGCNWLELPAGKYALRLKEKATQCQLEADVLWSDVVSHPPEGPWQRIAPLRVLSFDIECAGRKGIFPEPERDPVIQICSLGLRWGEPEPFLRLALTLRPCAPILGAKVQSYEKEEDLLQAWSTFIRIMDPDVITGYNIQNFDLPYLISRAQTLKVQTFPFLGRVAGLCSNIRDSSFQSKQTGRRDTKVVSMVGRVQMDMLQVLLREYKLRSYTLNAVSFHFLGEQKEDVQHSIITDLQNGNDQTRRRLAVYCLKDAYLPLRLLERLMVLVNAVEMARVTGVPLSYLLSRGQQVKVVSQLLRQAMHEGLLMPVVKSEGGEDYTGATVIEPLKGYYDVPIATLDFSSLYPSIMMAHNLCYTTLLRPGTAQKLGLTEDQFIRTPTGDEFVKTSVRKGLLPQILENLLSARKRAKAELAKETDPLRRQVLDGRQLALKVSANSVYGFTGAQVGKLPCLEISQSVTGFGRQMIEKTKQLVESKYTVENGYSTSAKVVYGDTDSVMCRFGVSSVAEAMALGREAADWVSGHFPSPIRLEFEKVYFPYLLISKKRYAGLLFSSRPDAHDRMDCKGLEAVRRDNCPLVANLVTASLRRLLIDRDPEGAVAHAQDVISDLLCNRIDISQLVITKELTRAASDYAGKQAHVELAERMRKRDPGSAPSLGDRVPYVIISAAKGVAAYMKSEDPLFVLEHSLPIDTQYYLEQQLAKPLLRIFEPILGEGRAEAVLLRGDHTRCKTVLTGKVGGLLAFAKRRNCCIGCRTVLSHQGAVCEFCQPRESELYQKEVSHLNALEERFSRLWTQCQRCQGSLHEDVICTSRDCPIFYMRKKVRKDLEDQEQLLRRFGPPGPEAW
UniProt P29590: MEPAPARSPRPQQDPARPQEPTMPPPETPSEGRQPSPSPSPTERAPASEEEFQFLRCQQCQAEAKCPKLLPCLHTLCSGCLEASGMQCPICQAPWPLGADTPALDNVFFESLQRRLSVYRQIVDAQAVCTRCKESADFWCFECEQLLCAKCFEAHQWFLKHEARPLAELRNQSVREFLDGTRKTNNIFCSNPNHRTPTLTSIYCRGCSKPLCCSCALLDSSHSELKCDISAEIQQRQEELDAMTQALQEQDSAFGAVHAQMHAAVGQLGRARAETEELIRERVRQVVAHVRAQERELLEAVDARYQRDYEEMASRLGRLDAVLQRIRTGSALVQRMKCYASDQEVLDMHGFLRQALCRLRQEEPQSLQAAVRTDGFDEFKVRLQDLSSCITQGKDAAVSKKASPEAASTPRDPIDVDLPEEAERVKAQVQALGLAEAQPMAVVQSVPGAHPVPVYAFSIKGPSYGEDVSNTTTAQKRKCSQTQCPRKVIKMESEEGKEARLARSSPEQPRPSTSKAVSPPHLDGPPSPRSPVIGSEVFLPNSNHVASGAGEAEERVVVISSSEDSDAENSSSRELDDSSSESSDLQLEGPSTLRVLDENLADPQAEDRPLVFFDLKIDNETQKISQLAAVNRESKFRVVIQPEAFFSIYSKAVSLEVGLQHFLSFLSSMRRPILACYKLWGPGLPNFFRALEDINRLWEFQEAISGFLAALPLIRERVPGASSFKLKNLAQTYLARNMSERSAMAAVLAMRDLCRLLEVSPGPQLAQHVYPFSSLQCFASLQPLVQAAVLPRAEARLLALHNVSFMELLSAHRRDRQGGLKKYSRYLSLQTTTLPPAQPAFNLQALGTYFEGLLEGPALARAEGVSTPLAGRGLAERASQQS
UniProt P26640: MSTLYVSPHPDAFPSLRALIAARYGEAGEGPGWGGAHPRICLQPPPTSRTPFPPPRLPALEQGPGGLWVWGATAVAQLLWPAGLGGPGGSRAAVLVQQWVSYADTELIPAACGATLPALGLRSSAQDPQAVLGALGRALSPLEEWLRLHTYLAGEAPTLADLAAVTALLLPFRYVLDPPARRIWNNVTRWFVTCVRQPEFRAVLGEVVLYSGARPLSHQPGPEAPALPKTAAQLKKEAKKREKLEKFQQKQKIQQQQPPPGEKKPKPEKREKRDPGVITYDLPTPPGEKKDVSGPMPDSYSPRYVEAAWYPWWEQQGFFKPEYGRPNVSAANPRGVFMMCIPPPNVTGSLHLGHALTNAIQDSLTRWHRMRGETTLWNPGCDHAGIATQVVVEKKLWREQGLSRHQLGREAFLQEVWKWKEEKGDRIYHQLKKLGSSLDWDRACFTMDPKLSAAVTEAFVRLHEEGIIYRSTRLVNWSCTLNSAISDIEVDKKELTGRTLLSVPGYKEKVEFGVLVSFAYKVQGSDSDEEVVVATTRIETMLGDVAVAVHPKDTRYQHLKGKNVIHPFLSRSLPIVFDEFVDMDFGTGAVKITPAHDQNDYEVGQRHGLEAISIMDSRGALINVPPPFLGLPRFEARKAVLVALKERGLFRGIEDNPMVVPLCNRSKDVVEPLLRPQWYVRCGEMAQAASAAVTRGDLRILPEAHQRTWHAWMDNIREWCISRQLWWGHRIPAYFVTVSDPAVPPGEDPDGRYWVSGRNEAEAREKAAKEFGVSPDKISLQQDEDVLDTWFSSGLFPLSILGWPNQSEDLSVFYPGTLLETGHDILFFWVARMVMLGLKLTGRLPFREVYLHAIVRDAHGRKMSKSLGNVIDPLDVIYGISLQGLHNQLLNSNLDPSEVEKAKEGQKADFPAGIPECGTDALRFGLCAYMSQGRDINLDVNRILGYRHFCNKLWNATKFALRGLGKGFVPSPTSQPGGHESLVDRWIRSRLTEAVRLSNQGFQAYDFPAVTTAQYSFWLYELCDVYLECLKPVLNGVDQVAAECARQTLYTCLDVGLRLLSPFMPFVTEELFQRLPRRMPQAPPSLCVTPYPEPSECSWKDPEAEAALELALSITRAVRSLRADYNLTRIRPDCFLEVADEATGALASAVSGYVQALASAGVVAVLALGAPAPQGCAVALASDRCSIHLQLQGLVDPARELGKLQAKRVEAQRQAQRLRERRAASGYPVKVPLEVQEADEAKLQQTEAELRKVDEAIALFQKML
UniProt P22059, whole entry: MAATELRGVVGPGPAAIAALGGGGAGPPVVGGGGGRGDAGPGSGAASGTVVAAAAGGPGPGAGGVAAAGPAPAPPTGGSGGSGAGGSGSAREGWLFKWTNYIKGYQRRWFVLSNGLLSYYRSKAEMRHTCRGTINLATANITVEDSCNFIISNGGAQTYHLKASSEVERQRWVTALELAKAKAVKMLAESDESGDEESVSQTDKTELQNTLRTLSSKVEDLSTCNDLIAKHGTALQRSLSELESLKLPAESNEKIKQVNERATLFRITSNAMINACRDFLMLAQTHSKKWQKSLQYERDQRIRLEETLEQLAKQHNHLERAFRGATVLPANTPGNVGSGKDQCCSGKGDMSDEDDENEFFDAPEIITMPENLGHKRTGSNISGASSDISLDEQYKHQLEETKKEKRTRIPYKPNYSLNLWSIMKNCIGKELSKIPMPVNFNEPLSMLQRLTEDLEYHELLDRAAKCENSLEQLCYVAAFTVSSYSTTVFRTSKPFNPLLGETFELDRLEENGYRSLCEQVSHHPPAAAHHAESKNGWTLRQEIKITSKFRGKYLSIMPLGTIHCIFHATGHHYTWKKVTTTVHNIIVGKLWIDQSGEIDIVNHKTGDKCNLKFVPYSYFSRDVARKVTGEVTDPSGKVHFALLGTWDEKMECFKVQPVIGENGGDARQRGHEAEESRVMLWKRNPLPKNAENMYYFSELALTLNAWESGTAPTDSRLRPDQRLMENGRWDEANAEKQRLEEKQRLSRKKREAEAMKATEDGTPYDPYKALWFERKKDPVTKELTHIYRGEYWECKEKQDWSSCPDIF
UniProt P25786: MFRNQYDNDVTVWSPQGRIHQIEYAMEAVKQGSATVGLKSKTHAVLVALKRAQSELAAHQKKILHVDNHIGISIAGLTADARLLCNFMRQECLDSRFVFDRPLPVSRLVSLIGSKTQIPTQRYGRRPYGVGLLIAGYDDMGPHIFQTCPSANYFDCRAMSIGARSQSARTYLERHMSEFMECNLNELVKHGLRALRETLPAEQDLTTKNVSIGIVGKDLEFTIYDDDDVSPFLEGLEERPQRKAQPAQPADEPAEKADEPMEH
UniProt P26641, whole entry, looked up: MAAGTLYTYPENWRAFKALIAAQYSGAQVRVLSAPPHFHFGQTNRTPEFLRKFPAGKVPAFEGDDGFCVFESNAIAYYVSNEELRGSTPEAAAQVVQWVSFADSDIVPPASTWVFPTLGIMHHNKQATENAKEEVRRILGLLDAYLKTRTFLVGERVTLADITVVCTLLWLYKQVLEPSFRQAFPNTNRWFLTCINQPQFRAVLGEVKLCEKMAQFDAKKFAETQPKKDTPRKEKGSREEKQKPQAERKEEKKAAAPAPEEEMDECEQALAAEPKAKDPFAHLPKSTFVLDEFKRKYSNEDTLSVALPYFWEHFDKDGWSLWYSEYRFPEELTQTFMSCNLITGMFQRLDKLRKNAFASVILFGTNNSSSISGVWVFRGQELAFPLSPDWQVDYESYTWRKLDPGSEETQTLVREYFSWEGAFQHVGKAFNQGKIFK
UniProt P25705: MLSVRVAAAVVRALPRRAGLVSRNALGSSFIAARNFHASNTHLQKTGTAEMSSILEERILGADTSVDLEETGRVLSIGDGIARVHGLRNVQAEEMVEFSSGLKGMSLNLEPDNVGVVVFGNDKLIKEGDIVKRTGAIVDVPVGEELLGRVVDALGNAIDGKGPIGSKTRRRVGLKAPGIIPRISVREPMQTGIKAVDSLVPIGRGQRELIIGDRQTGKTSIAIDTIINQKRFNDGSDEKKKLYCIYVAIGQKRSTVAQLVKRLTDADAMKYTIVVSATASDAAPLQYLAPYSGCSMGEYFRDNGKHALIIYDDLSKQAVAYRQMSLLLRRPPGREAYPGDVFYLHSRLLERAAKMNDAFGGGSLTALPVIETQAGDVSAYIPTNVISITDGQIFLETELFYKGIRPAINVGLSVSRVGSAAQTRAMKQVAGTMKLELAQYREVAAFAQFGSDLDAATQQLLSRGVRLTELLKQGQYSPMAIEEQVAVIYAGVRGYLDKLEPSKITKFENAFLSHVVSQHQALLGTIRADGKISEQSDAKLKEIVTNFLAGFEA

compound: COC(=O)C#Cc1ccccc1 [methyl 3-phenylpropiolate]; assay: log2 ratio of iodoacetamide-alkyne labeling of the cysteine site, DMSO over compound (competition); higher = stronger covalent engagement of the cysteine by the compound, active = 1 or more; conditions: 500 µM; treatment time 1 h; system: HEK293T cell lysate
Procedure, shortened: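 The log2 competition ratio per cysteine is defined as mean reporter intensity in control channels over mean reporter intensity in compound channels. Lysate from HEK293T cells (2 mg/mL) received electrophile (500 µM) or vehicle for 1 h at ambient temperature, followed by iodoacetamide alkyne for 1 h. Samples were clicked to sCIP-TMT reagents, pooled, trypsin-digested overnight at 37 °C, streptavidin-enriched, acid-eluted and run on Orbitrap Eclipse LC-MS/MS with FAIMS, with quantification in FragPipe. Three replicates with duplicate channels were used, and any cysteine quantified in only one replicate was excluded.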

log2 ratio of iodoacetamide-alkyne labeling, inactive:
DNMT1 C62 (UniProt P26358) 0.213
FECH C196 (UniProt P22830) 0.356
NF1 C383 (UniProt P21359) 0.376
COMT C223 (UniProt P21964) 0.307
PSMC3 C387 (UniProt P17980) -0.0995
SDHB C68 (UniProt P21912) -0.0527
LMNB1 C198 (UniProt P20700) 0.109
LAP3 C445 (UniProt P28838) 0.00649
PTBP1 C251 (UniProt P26599) 0.112
POLD1 C428 (UniProt P28340) 0.281
PTBP1 C250 (UniProt P26599) 0.165
PML C227 (UniProt P29590) 0.361
VARS C682 (UniProt P26640) 0.0372
MCM3 C119 (UniProt P25205) 0.38
OSBP C224 (UniProt P22059) -0.138
BCKDHB C177 (UniProt P21953) 0.0777
UniProt P26367_C94 0.097
ANXA7 C363 (UniProt P20073) 0.0125
PSMA1 C156 (UniProt P25786) 0.136
EEF1G C194 (UniProt P26641) 0.0462
TKT C225 (UniProt P29401) -0.0938
DNMT1 C1125 (UniProt P26358) 0.473
MAP4 C535 (UniProt P27816) -0.0505
PML C389 (UniProt P29590) 0.237
CAST C328 (UniProt P20810) 0.06
PAICS C63 (UniProt P22234) 0.0152
NF1 C1486 (UniProt P21359) 0.0929
SON C92 (UniProt P18583) 0.775
UniProt P25705_C244 0.205
FLNA C1165 (UniProt P21333) 0.598
TCP1 C76 (UniProt P17987) 0.188
FLNA C1157 (UniProt P21333) 0.106
VARS C720 (UniProt P26640) 0.0991
BTF3 C22 (UniProt P20290) 0.972
GART C134 (UniProt P22102) 0.298
POLD1 C873 (UniProt P28340) 0.195
PAICS C81 (UniProt P22234) 0.248
RCC1 C93 (UniProt P18754) 0.14

10 successive records out of the list so far:
log2 ratio of iodoacetamide-alkyne labeling, inactive:
PSMC3 C387 (UniProt P17980) -0.0995
SDHB C68 (UniProt P21912) -0.0527
LMNB1 C198 (UniProt P20700) 0.109
LAP3 C445 (UniProt P28838) 0.00649
PTBP1 C251 (UniProt P26599) 0.112
POLD1 C428 (UniProt P28340) 0.281
PTBP1 C250 (UniProt P26599) 0.165
PML C227 (UniProt P29590) 0.361
VARS C682 (UniProt P26640) 0.0372
MCM3 C119 (UniProt P25205) 0.38
